Data published in the supplement of paper PMC8166895.
Structures can show the parent of a compound that is named as a salt. The list shows a part of the results. Most values lie at the level of the controls, where differences are scatter.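 Melting temperature was read by differential scanning fluorimetry in a single-replicate pilot screen of a library of approved drugs and clinical or known-target compounds. Compounds raising the melting point by at least 2 °C were the top stabilizing hits, and negative shifts mean destabilization.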

These molecules were tested on SARS-CoV-2 main protease (Mpro, nsp5) (assay: thermal shift ΔTm of Mpro relative to plate average Tm; higher = stronger thermal stabilization of Mpro (binding)). Details: 10 µM; protein concentration 1 µM.

| SMILES | thermal shift ΔTm of Mpro [°C] |
| --- | --- |
| Oc1ccc(Cl)c2cccnc12 [Dermofongin] | 0.214 |
| Nc1c(Br)cc(Br)cc1CN[C@H]1CC[C@H](O)CC1 [Ambroxol] | 0.259 |
| Nc1c(Br)cc(Br)cc1CN[C@H]1CC[C@H](O)CC1 [Ambroxol HCl] | 0.0643 |
| Cn1ccnc1S [Methimazole] | -0.035 |
| O=C(O)CCC(=O)Nc1ccc(Br)cn1 [Bikinin] | -0.207 |
| COc1ccc(C(=O)Nc2sc3c(c2C(N)=O)CCCC3)cc1OC | -0.123 |
| CC(=O)N[C@@H](CCC(N)=O)C(=O)O [Aceglutamide] | -0.345 |
| O=NO [Sodium Nitrite] | 0.178 |
| CC(=O)NO [Acetohydroxamic acid] | 0.184 |
| COc1cc(Nc2ncc(F)c(Nc3ccc4c(n3)NC(=O)C(C)(C)O4)n2)cc(OC)c1OC [R406 (free base)] | 0.0493 |
| COc1cc(Nc2ncc(F)c(Nc3ccc4c(n3)NC(=O)C(C)(C)O4)n2)cc(OC)c1OC | -0.0341 |
| CC[C@H]1OC(=O)[C@@](C)(F)C(=O)[C@H](C)[C@@H](O[C@@H]2O[C@H](C)C[C@H](N(C)C)[C@H]2O)[C@](C)(OC)C[C@@H](C)C(=O)[C@H](C)[C@H]2N(CCCCn3cc(-c4cccc(N)c4)nn3)C(=O)O[C@]12C [Solithromycin] | -0.0534 |
| CC(C)(Oc1ccc(Cl)cc1)C(=O)O [Clofibric Acid] | 0.0159 |
| CC(=O)[C@@]1(O)CC[C@H]2[C@@H]3CCC4=CC(=O)CCC4=C3[C@@H](c3ccc(N(C)C)cc3)C[C@@]21C [Ulipristal] | -0.16 |
| O=c1cc(N2CCNCC2)oc2c(-c3ccccc3)cccc12 | 0.108 |
| Cc1c(N[C@@H](c2nnc(-c3ccc(C#N)cc3)o2)[C@H](C)O)ccc(C#N)c1Cl [Testolone] | -0.095 |
| COc1cc2ncc(-c3ccccc3)nc2cc1OC [Tyrphostin AG 1296] | -0.062 |
| Cc1ccc(/C(=C\CN2CCCC2)c2cccc(/C=C/C(=O)O)n2)cc1 [Acrivastine] | 0.103 |
| CCC[C@H](Nc1nc(-c2ccc(NC(=O)NCC)c(OC)c2)ncc1C)c1cccnc1 [CYT997 (Lexibulin)] | -0.163 |
| COc1cc2ncnc(Nc3ccc(Oc4ccccc4)cc3C)c2cc1OC | -0.0834 |
| CS(=O)(=O)c1cccc(CNc2nc(Nc3ccc4c(c3)CCC(=O)N4)ncc2C(F)(F)F)c1 | 0.0365 |
| CCCCCCCCCCC[C@@H](C[C@@H]1OC(=O)[C@H]1CCCCCC)OC(=O)[C@H](CC(C)C)NC=O [Orlistat] | 0.111 |
| CC(C)(C)n1nc(-c2ccc(Cl)cc2)c2c(N)ncnc21 | -0.0517 |
| Cc1onc(-c2ccccc2Cl)c1C(=O)N(C)c1ccc(Cl)cc1 | 0.0501 |
| CC1(C)CCC(CN2CCN(c3ccc(C(=O)NS(=O)(=O)c4ccc(NCC5CCOCC5)c([N+](=O)[O-])c4)c(Oc4cnc5[nH]ccc5c4)c3)CC2)=C(c2ccc(Cl)cc2)C1 | 1.07 |
| NCC1CCC(C(=O)O)CC1 (centres undefined) [Amstat] | 0.216 |
| O=C(CC1NCCCC1O)Cn1cnc2cc(Br)c(Cl)cc2c1=O (centres undefined) [Halofuginone hydrobromide] | 0.0564 |

| SMILES | thermal shift ΔTm of Mpro [°C] |
| --- | --- |
| Cc1cccc(/C=N/Nc2cc(N3CCOCC3)nc(OCCc3ccccn3)n2)c1 [Apilimod mesylate] | -0.164 |
| Cc1cccc(/C=N/Nc2cc(N3CCOCC3)nc(OCCc3ccccn3)n2)c1 [Apilimod] | 0.00159 |
| Cc1ccc(NC(=O)c2ccc(CN3CC[C@H](N(C)C)C3)c(C(F)(F)F)c2)cc1Nc1nccc(-c2cncnc2)n1 [Bafetinib (INNO-406)] | 0.564 |
| Cc1c2[n+](cc3cc4c(cc13)OCO4)CCc1cc3c(cc1-2)OCO3 [Worenine] | 0.0353 |
| Cc1cccc(C)c1NC(=O)C1CCCCN1C (centres undefined) [Mepivacaine HCl] | 0.219 |
| CCc1nc(-c2cccc(C)c2)c(-c2ccnc(NC(=O)c3ccccc3)c2)s1 | -0.352 |
| CN(C)c1ccc2nc3ccc(=[N+](C)C)cc-3sc2c1 [Methylene Blue trihydrate] | -0.157 |
| CN(C)c1ccc2nc3ccc(=[N+](C)C)cc-3sc2c1 [Methylene Blue] | 0.0458 |
| COc1cc(/C=C/C(=O)N2CCC=CC2=O)cc(OC)c1OC [Piperlongumine] | -0.214 |
| N#Cc1ccc2[nH]cc(CCCCN3CCN(c4ccc5oc(C(N)=O)cc5c4)CC3)c2c1 [Vilazodone] | -0.023 |
| N#Cc1ccc2[nH]cc(CCCCN3CCN(c4ccc5oc(C(N)=O)cc5c4)CC3)c2c1 [Vilazodone HCl] | 0.554 |
| CN1C(C(=O)Nc2ccccn2)=C(O)c2sccc2S1(=O)=O [Tenoxicam] | 0.3 |
| CC(C)c1cc2c(c(O)c1O)[C@@]13CCCC(C)(C)[C@@H]1[C@H](OC3=O)[C@H]2O [Rosmanol] | 0.0817 |
| Cc1ncc([N+](=O)[O-])n1CC(O)CCl (centres undefined) [Ornidazole] | 0.263 |
| O=C(c1ccc2nccnc2c1)N1CCCCC1 [Ampalex] | 0.141 |
| C[C@]12C=CC(=O)C=C1CC[C@@H]1[C@@H]2[C@@H](O)C[C@@]2(C)[C@H]1CC[C@]2(O)C(=O)COP(=O)(O)O [Prednisolone phosphate sodium] | 0.0858 |
| N=C(N)N [Guanidine HCl] | 0.193 |
| Cc1c(C(N)=O)cc([N+](=O)[O-])cc1[N+](=O)[O-] [Dinitolmide] | -0.117 |
| Oc1ccc(Cl)c2c1CCC2 [Chlorindanol] | -0.129 |
| Cn1c(=O)c2[nH]cnc2n(C)c1=O [Aminophylline] | -0.0272 |
| CS(=O)(=O)c1ccc(C2=C(c3ccccc3)C(=O)OC2)cc1 [Rofecoxib] | -0.0932 |
| CC(=O)c1cc([N+](=O)[O-])c(Sc2cccc(Cl)c2Cl)s1 | 0.0931 |
| Cc1ccnc2c1NC(=O)c1cccnc1N2C1CC1 [Nevirapine] | 0.0402 |
| CN(C)CCC=C1c2ccccc2CCc2ccccc21 [Amitriptyline HCl] | -0.14 |
| C#C[C@]1(O)CC[C@H]2[C@@H]3CCc4cc(OC5CCCC5)ccc4[C@H]3CC[C@@]21C [Quinestrol] | -0.145 |
| CC(C)[C@H](CO)Nc1nc(Nc2cccc(Cl)c2)c2ncn(C(C)C)c2n1 [Purvalanol A] | -0.0804 |
| Cc1[nH]c(=O)c(C#N)cc1-c1ccncc1 [Milrinone] | -0.0494 |

Two records picked at random from those above, as already listed:

| SMILES | thermal shift ΔTm of Mpro [°C] |
| --- | --- |
| CC(=O)[C@@]1(O)CC[C@H]2[C@@H]3CCC4=CC(=O)CCC4=C3[C@@H](c3ccc(N(C)C)cc3)C[C@@]21C [Ulipristal] | -0.16 |
| CS(=O)(=O)c1cccc(CNc2nc(Nc3ccc4c(c3)CCC(=O)N4)ncc2C(F)(F)F)c1 | 0.0365 |
